Experimental data published in the supplement of paper PMC11546906.
Counter-ions that a name gives are not always drawn. The list shows a part of the results. Single values are uncertain here, since repeats match poorly.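 Screen of FDA-approved drugs, each combined with colistin at one-eighth of its MIC, against a multidrug-resistant mcr-1-positive clinical E. coli isolate; growth read as OD600 after 24 h. Bacteria without drug were the growth control and plain broth the blank. A combination counted as active when OD600 fell below 0.2.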

Test system: Escherichia coli 42 (mcr-1-positive clinical isolate)
Test: OD600 after 24 h growth with compound plus colistin (absorbance units (OD600)); higher = more bacterial growth (less inhibition)
Conditions: first compound 25 µM; colistin concentration 0.5 ug/mL; incubation time 24 h; 37 °C

OD600, inactive:
CN(C)CCOC(C)(c1ccccc1)c1ccccn1 (stereo not given) [Doxylamine succinate] + CCC(C)CCCC(=O)N[C@@H](CCN)C(=O)N[C@H](C(=O)N[C@@H](CCN)C(=O)N[C@H]1CCNC(=O)[C@H]([C@@H](C)O)NC(=O)[C@H](CCN)NC(=O)[C@H](CCN)NC(=O)[C@H](CC(C)C)NC(=O)[C@@H](CC(C)C)NC(=O)[C@H](CCN)NC1=O)[C@@H](C)O [colistin] 1.06
CCOc1cc2ncc(C#N)c(Nc3ccc(OCc4ccccn4)c(Cl)c3)c2cc1NC(=O)/C=C/CN(C)C [Neratinib] + CCC(C)CCCC(=O)N[C@@H](CCN)C(=O)N[C@H](C(=O)N[C@@H](CCN)C(=O)N[C@H]1CCNC(=O)[C@H]([C@@H](C)O)NC(=O)[C@H](CCN)NC(=O)[C@H](CCN)NC(=O)[C@H](CC(C)C)NC(=O)[C@@H](CC(C)C)NC(=O)[C@H](CCN)NC1=O)[C@@H](C)O [colistin] 0.779
CCCN1CCCC[C@H]1C(=O)Nc1c(C)cccc1C [Ropivacaine] + CCC(C)CCCC(=O)N[C@@H](CCN)C(=O)N[C@H](C(=O)N[C@@H](CCN)C(=O)N[C@H]1CCNC(=O)[C@H]([C@@H](C)O)NC(=O)[C@H](CCN)NC(=O)[C@H](CCN)NC(=O)[C@H](CC(C)C)NC(=O)[C@@H](CC(C)C)NC(=O)[C@H](CCN)NC1=O)[C@@H](C)O [colistin] 1.24
CCS(=O)(=O)N1CC(CC#N)(n2cc(-c3ncnc4[nH]ccc34)cn2)C1 [Baricitinib phosphate] + CCC(C)CCCC(=O)N[C@@H](CCN)C(=O)N[C@H](C(=O)N[C@@H](CCN)C(=O)N[C@H]1CCNC(=O)[C@H]([C@@H](C)O)NC(=O)[C@H](CCN)NC(=O)[C@H](CCN)NC(=O)[C@H](CC(C)C)NC(=O)[C@@H](CC(C)C)NC(=O)[C@H](CCN)NC1=O)[C@@H](C)O [colistin] 1.05
S=c1nc[nH]c2nc[nH]c12 [6-Mercaptopurine] + CCC(C)CCCC(=O)N[C@@H](CCN)C(=O)N[C@H](C(=O)N[C@@H](CCN)C(=O)N[C@H]1CCNC(=O)[C@H]([C@@H](C)O)NC(=O)[C@H](CCN)NC(=O)[C@H](CCN)NC(=O)[C@H](CC(C)C)NC(=O)[C@@H](CC(C)C)NC(=O)[C@H](CCN)NC1=O)[C@@H](C)O [colistin] 0.952
COC(=O)Nc1nc2cc(C(=O)c3ccccc3)ccc2[nH]1 [Mebendazole] + CCC(C)CCCC(=O)N[C@@H](CCN)C(=O)N[C@H](C(=O)N[C@@H](CCN)C(=O)N[C@H]1CCNC(=O)[C@H]([C@@H](C)O)NC(=O)[C@H](CCN)NC(=O)[C@H](CCN)NC(=O)[C@H](CC(C)C)NC(=O)[C@@H](CC(C)C)NC(=O)[C@H](CCN)NC1=O)[C@@H](C)O [colistin] 1.15
CNCCCN1c2ccccc2CCc2ccccc21 [Desipramine hydrochloride] + CCC(C)CCCC(=O)N[C@@H](CCN)C(=O)N[C@H](C(=O)N[C@@H](CCN)C(=O)N[C@H]1CCNC(=O)[C@H]([C@@H](C)O)NC(=O)[C@H](CCN)NC(=O)[C@H](CCN)NC(=O)[C@H](CC(C)C)NC(=O)[C@@H](CC(C)C)NC(=O)[C@H](CCN)NC1=O)[C@@H](C)O [colistin] 0.908
CC1=NN(c2ccccc2)C(=O)C1 [Edaravone] + CCC(C)CCCC(=O)N[C@@H](CCN)C(=O)N[C@H](C(=O)N[C@@H](CCN)C(=O)N[C@H]1CCNC(=O)[C@H]([C@@H](C)O)NC(=O)[C@H](CCN)NC(=O)[C@H](CCN)NC(=O)[C@H](CC(C)C)NC(=O)[C@@H](CC(C)C)NC(=O)[C@H](CCN)NC1=O)[C@@H](C)O [colistin] 1.08
C#CCN[C@@H]1CCc2ccccc21 [Rasagiline] + CCC(C)CCCC(=O)N[C@@H](CCN)C(=O)N[C@H](C(=O)N[C@@H](CCN)C(=O)N[C@H]1CCNC(=O)[C@H]([C@@H](C)O)NC(=O)[C@H](CCN)NC(=O)[C@H](CCN)NC(=O)[C@H](CC(C)C)NC(=O)[C@@H](CC(C)C)NC(=O)[C@H](CCN)NC1=O)[C@@H](C)O [colistin] 1.16
C#Cc1cccc(Nc2ncnc3cc(OCCOC)c(OCCOC)cc23)c1 [Erlotinib hydrochloride] + CCC(C)CCCC(=O)N[C@@H](CCN)C(=O)N[C@H](C(=O)N[C@@H](CCN)C(=O)N[C@H]1CCNC(=O)[C@H]([C@@H](C)O)NC(=O)[C@H](CCN)NC(=O)[C@H](CCN)NC(=O)[C@H](CC(C)C)NC(=O)[C@@H](CC(C)C)NC(=O)[C@H](CCN)NC1=O)[C@@H](C)O [colistin] 0.99
Nc1nnc(-c2cccc(Cl)c2Cl)c(N)n1 [Lamotrigine] + CCC(C)CCCC(=O)N[C@@H](CCN)C(=O)N[C@H](C(=O)N[C@@H](CCN)C(=O)N[C@H]1CCNC(=O)[C@H]([C@@H](C)O)NC(=O)[C@H](CCN)NC(=O)[C@H](CCN)NC(=O)[C@H](CC(C)C)NC(=O)[C@@H](CC(C)C)NC(=O)[C@H](CCN)NC1=O)[C@@H](C)O [colistin] 1.11
O=C(O)c1ccccc1 [Benzoic acid] + CCC(C)CCCC(=O)N[C@@H](CCN)C(=O)N[C@H](C(=O)N[C@@H](CCN)C(=O)N[C@H]1CCNC(=O)[C@H]([C@@H](C)O)NC(=O)[C@H](CCN)NC(=O)[C@H](CCN)NC(=O)[C@H](CC(C)C)NC(=O)[C@@H](CC(C)C)NC(=O)[C@H](CCN)NC1=O)[C@@H](C)O [colistin] 0.957
NCC(=O)CCC(=O)O [5-Aminolevulinic acid hydrochloride] + CCC(C)CCCC(=O)N[C@@H](CCN)C(=O)N[C@H](C(=O)N[C@@H](CCN)C(=O)N[C@H]1CCNC(=O)[C@H]([C@@H](C)O)NC(=O)[C@H](CCN)NC(=O)[C@H](CCN)NC(=O)[C@H](CC(C)C)NC(=O)[C@@H](CC(C)C)NC(=O)[C@H](CCN)NC1=O)[C@@H](C)O [colistin] 1.08
Cc1nc(-c2ccc(OCC(C)C)c(C#N)c2)sc1C(=O)O [Febuxostat] + CCC(C)CCCC(=O)N[C@@H](CCN)C(=O)N[C@H](C(=O)N[C@@H](CCN)C(=O)N[C@H]1CCNC(=O)[C@H]([C@@H](C)O)NC(=O)[C@H](CCN)NC(=O)[C@H](CCN)NC(=O)[C@H](CC(C)C)NC(=O)[C@@H](CC(C)C)NC(=O)[C@H](CCN)NC1=O)[C@@H](C)O [colistin] 1.02
NC(=O)c1ncn([C@@H]2O[C@H](CO)[C@@H](O)[C@H]2O)n1 [Ribavirin] + CCC(C)CCCC(=O)N[C@@H](CCN)C(=O)N[C@H](C(=O)N[C@@H](CCN)C(=O)N[C@H]1CCNC(=O)[C@H]([C@@H](C)O)NC(=O)[C@H](CCN)NC(=O)[C@H](CCN)NC(=O)[C@H](CC(C)C)NC(=O)[C@@H](CC(C)C)NC(=O)[C@H](CCN)NC1=O)[C@@H](C)O [colistin] 1.18
O=NN(CCCl)C(=O)NCCCl [Carmustine] + CCC(C)CCCC(=O)N[C@@H](CCN)C(=O)N[C@H](C(=O)N[C@@H](CCN)C(=O)N[C@H]1CCNC(=O)[C@H]([C@@H](C)O)NC(=O)[C@H](CCN)NC(=O)[C@H](CCN)NC(=O)[C@H](CC(C)C)NC(=O)[C@@H](CC(C)C)NC(=O)[C@H](CCN)NC1=O)[C@@H](C)O [colistin] 0.93
C[C@@H]1O[C@@H]1P(=O)(O)O [Fosfomycin sodium] + CCC(C)CCCC(=O)N[C@@H](CCN)C(=O)N[C@H](C(=O)N[C@@H](CCN)C(=O)N[C@H]1CCNC(=O)[C@H]([C@@H](C)O)NC(=O)[C@H](CCN)NC(=O)[C@H](CCN)NC(=O)[C@H](CC(C)C)NC(=O)[C@@H](CC(C)C)NC(=O)[C@H](CCN)NC1=O)[C@@H](C)O [colistin] 0.887
C[C@]12CC[C@H](O)CC1=CC[C@@H]1[C@@H]2CC[C@]2(C)C(c3cccnc3)=CC[C@@H]12 [Abiraterone] + CCC(C)CCCC(=O)N[C@@H](CCN)C(=O)N[C@H](C(=O)N[C@@H](CCN)C(=O)N[C@H]1CCNC(=O)[C@H]([C@@H](C)O)NC(=O)[C@H](CCN)NC(=O)[C@H](CCN)NC(=O)[C@H](CC(C)C)NC(=O)[C@@H](CC(C)C)NC(=O)[C@H](CCN)NC1=O)[C@@H](C)O [colistin] 1.08
O=C1N=C(O)NC1(c1ccccc1)c1ccccc1 [Phenytoin sodium] + CCC(C)CCCC(=O)N[C@@H](CCN)C(=O)N[C@H](C(=O)N[C@@H](CCN)C(=O)N[C@H]1CCNC(=O)[C@H]([C@@H](C)O)NC(=O)[C@H](CCN)NC(=O)[C@H](CCN)NC(=O)[C@H](CC(C)C)NC(=O)[C@@H](CC(C)C)NC(=O)[C@H](CCN)NC1=O)[C@@H](C)O [colistin] 1.02
COc1cc(CNC(=O)CCCC/C=C/C(C)C)ccc1O [Capsaicin] + CCC(C)CCCC(=O)N[C@@H](CCN)C(=O)N[C@H](C(=O)N[C@@H](CCN)C(=O)N[C@H]1CCNC(=O)[C@H]([C@@H](C)O)NC(=O)[C@H](CCN)NC(=O)[C@H](CCN)NC(=O)[C@H](CC(C)C)NC(=O)[C@@H](CC(C)C)NC(=O)[C@H](CCN)NC1=O)[C@@H](C)O [colistin] 1.15

Reprinted at random: 2 entries already listed
OD600, inactive:
CN(C)CCOC(C)(c1ccccc1)c1ccccn1 (stereo not given) [Doxylamine succinate] + CCC(C)CCCC(=O)N[C@@H](CCN)C(=O)N[C@H](C(=O)N[C@@H](CCN)C(=O)N[C@H]1CCNC(=O)[C@H]([C@@H](C)O)NC(=O)[C@H](CCN)NC(=O)[C@H](CCN)NC(=O)[C@H](CC(C)C)NC(=O)[C@@H](CC(C)C)NC(=O)[C@H](CCN)NC1=O)[C@@H](C)O [colistin] 1.06
COC(=O)Nc1nc2cc(C(=O)c3ccccc3)ccc2[nH]1 [Mebendazole] + CCC(C)CCCC(=O)N[C@@H](CCN)C(=O)N[C@H](C(=O)N[C@@H](CCN)C(=O)N[C@H]1CCNC(=O)[C@H]([C@@H](C)O)NC(=O)[C@H](CCN)NC(=O)[C@H](CCN)NC(=O)[C@H](CC(C)C)NC(=O)[C@@H](CC(C)C)NC(=O)[C@H](CCN)NC1=O)[C@@H](C)O [colistin] 1.15
